Data as given in article PMC4906411.
These are yes or no findings as the source states them, for the method shown. Binding seen in cells or lysates may run through a third protein. Some entries that bind do so weakly or less than the wild type. Tags and fused reporters may be left off the sequences shown.

Biological target: Flag-PLEKHM1, Q9Y4G2
Assay: co-IP; HEK293T cells transfected with Flag-PLEKHM1 and HA-VPS41, with HA-RILP or HA-RILPΔ199 co-expressed (attenuated by RILPΔ199); immunoprecipitated for Flag; lysis buffer 0.5% NP-40, 150 mM NaCl, pH 8.0
Conditions: remark: other sources report otherwise

B1: HA-VPS41, P49754 1-854 (protein)
chain: MAEAEEQETGSLEESTDESEEEESEEEPKLKYERLSNGVTEILQKDAASCMTVHDKFLALGTHYGKVYLLDVQGNITQKFDVSPVKINQISLDESGEHMGVCSEDGKVQVFGLYSGEEFHETFDCPIKIIAVHPHFVRSSCKQFVTGGKKLLLFERSWMNRWKSAVLHEGEGNIRSVKWRGHLIAWANNMGVKIFDIISKQRITNVPRDDISLRPDMYPCSLCWKDNVTLIIGWGTSVKVCSVKERHASEMRDLPSRYVEIVSQFETEFYISGLAPLCDQLVVLSYVKEISEKTEREYCARPRLDIIQPLSETCEEISSDALTVRGFQENECRDYHLEYSEGESLFYIVSPRDVVVAKERDQDDHIDWLLEKKKYEEALMAAEISQKNIKRHKILDIGLAYINHLVERGDYDIAARKCQKILGKNAALWEYEVYKFKEIGQLKAISPYLPRGDPVLKPLIYEMILHEFLESDYEGFATLIREWPGDLYNNSVIVQAVRDHLKKDSQNKTLLKTLAELYTYDKNYGNALEIYLTLRHKDVFQLIHKHNLFSSIKDKIVLLMDFDSEKAVDMLLDNEDKISIKKVVEELEDRPELQHVYLHKLFKRDHHKGQRYHEKQISLYAEYDRPNLLPFLRDSTHCPLEKALEICQQRNFVEETVYLLSRMGNSRSALKMIMEELHDVDKAIEFAKEQDDGELWEDLILYSIDKPPFITGLLNNIGTHVDPILLIHRIKEGMEIPNLRDSLVKILQDYNLQILLREGCKKILVADSLSLLKKMHRTQMKGVLVDEENICESCLSPILPSDAAKPFSVVVFHCRHMFHKECLPMPSMNSAAQFCNICSAKNRGPGSAILEMKK
B1 was tested, and the binding was “binds”.
